Measured values published in patent US20220213138A1 (UNIVERSITY OF HONG KONG, priority 2019, published 2022).

Experiment: general procedure: Fmoc solid-phase peptide synthesis; rink amide resin (GL Biochem); hydrazine 2-chlorotrityl chloride resin (loading 0.5 mmol/g); HATU/DIPEA
Details: for conjugation yield: conjugation step, HPLC yield; for cyclisation yield: cyclisation step

Substance: Ac-KSDSWHYWC-NH2 [cKC9′-F]
- conjugation yield (run 1): 32.82%

Substance: cyclo-(Ac-KGEAFQC-CONH2)-DMAC
- cyclisation yield: 36.6% yield

Substance: Ac-KSDSWHYWC-NH2 [cKC9′-R]
- conjugation yield (run 1): 30.66%

Substance: bicyclo-(CSQGTFTSDYSKYLDSRRAQ)-DMAC
- cyclisation yield: 65% yield

Substance: cyclo-(Ac-GAQCAFLK-CONH2)-DMAC
- cyclisation yield: 38% yield

Substance: cyclo-(Ac-ACFALPKG-CONH2)-DMAC
- cyclisation yield (run 1): 48% yield
- cyclisation yield (run 2): 48.6%

Substance: bicyclo-(CNSTKNLTFAMRSSGDYGEV)-DMAC
- cyclisation yield (run 1): 69% yield
- cyclisation yield (run 2): 32.5%

Substance: cyclo(CSSLDEPGRGGFSSESKV)
- cyclisation yield: 68.8%

Substance: cyclo-(Ac-AKVTMTCSAS-CONH2)-DMAC
- cyclisation yield (run 1): 32% yield
- cyclisation yield (run 2): 32.1%

Substance: cyclo-(Ac-KAAACH-CONH2)-DMAC
- cyclisation yield (run 1): 47.27% yield
- cyclisation yield (run 2): 54%

Substance: Ac-KTPSPFDSHC-NH2 [cKC10′-R]
- conjugation yield (run 1): 62.67%

Substance: cyclo-(Ac-CDWLPK-CONH2)-DMAC
- cyclisation yield (run 1): 31.9% yield
- cyclisation yield (run 2): 32%

Substance: Ac-KTPSPFDSHC-NH2 [cKC10′-F]
- conjugation yield (run 1): 45.01%

Substance: bicyclo-(CSSLDEPGRGGFSSESKV)-DMAC
- cyclisation yield (run 1): 43% yield
- cyclisation yield (run 2): 43.7%

Substance: Ac-CPIEDRPMK-NH2 [cCK9′-F]
- conjugation yield (run 1): 65.06%

Substance: cyclo-(CSQGTFTSDYSKYLDSRRAQ)
- cyclisation yield: 71.7%

Substance: cyclo-(Ac-KAAAACH-CONH2)-DMAC
- cyclisation yield (run 1): 34% yield
- cyclisation yield (run 2): 34.4%

Substance: cyclo-(Ac-KAAAAACH-CONH2)-DMAC
- cyclisation yield (run 1): 52.2% yield
- cyclisation yield (run 2): 53.2%

Substance: Ac-CPIEDRPMK-NH2 [cCK9′-R]
- conjugation yield (run 1): 33.85%

Substance: cyclo(CNSTKNLTFAMRSSGDYGEV)
- cyclisation yield: 31%

Substance: cyclo-(Ac—NYRWRCKN-CONH2)-DMAC
- cyclisation yield (run 1): 32% yield
- cyclisation yield (run 2): 28.3%

Substance: bicyclo-(Dap-A-Hyp-C-t-A-E)-DMAC
- cyclisation yield (run 1): 65%
- cyclisation yield (run 2): 66%

Substance: cyclo-(Ac-ENPECILDKHVQRVM-CONH2)-DMAC
- cyclisation yield: 35% yield
